We go through one molecule from US20050214288A1.

Results are given in words; binding and its absence hold for the method and conditions named. Some entries that bind do so weakly or less than the wild type. Sequences can lack the tags named with a protein.

The target in the assay is T1, biotinylated rHuNOGOSR-Flag (recombinant soluble human Flag-tagged NogoR) (human) (UniProt Q9BZR6).
T1 sequence (chain, biotinylated with Sulfo-NHS-LC-Biotin (sites not stated)): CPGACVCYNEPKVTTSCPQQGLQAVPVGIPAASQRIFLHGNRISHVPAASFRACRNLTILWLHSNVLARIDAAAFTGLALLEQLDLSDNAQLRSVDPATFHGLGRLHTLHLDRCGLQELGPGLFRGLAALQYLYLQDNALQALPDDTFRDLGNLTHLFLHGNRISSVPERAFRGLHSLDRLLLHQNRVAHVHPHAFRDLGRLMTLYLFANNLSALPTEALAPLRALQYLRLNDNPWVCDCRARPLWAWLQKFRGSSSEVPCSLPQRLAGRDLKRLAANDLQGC
The assay is described as follows: ECL matrix assay, streptavidin beads capture Biotin-sNogoR-Flag.

B1: Recombinant Rat MAG-Fc (R&D Systems), labeled with Ori-TAG (Fc fusion, UniProt P07722 20-516, looked up, not shown: a dimerising Fc or GST)
chain: GHWGAWMPSSISAFEGTCVSIPCRFDFPDELRPAVVHGVWYFNSPYPKNYPPVVFKSRTQVVHESFQGRSRLLGDLGLRNCTLLLSTLSPELGGKYYFRGDLGGYNQYTFSEHSVLDIINTPNIVVPPEVVAGTEVEVSCMVPDNCPELRPELSWLGHEGLGEPTVLGRLREDEGTWVQVSLLHFVPTREANGHRLGCQAAFPNTTLQFEGYASLDVKYPPVIVEMNSSVEAIEGSHVSLLCGADSNPPPLLTWMRDGMVLREAVAESLYLDLEEVTPAEDGIYACLAENAYGQDNRTVELSVMYAPWKPTVNGTVVAVEGETVSILCSTQSNPDPILTIFKEKQILATVIYESQLQLELPAVTPEDDGEYWCVAENQYGQRATAFNLSVEFAPIILLESHCAAARDTVQCLCVVKSNPEPSVAFELPSRNVTVNETEREFVYSERSGLLLTSILTLRGQAQAPPRVICTSRNLYGTQSLELPFQGAHRLMWAKIGP
modifications: labeled with Origen-TAG-NHS at a molar challenge ratio of 5:1
Take B1: the binding result was “binds”.
